Measured values as given in article doi:10.1101/2025.01.13.632856.
These are yes or no findings as the source states them, for the method shown. In cells and extracts the contact can be indirect. Some results given as binding are weak or reduced against the parent protein; the word gives no strength. For some assays here: Tags and fused reporters may be left off the sequences shown.

Chains of the proteins cited; added tags and fusions are not shown. Residues count along the entry.
UniProt P35916, residues 25-1363: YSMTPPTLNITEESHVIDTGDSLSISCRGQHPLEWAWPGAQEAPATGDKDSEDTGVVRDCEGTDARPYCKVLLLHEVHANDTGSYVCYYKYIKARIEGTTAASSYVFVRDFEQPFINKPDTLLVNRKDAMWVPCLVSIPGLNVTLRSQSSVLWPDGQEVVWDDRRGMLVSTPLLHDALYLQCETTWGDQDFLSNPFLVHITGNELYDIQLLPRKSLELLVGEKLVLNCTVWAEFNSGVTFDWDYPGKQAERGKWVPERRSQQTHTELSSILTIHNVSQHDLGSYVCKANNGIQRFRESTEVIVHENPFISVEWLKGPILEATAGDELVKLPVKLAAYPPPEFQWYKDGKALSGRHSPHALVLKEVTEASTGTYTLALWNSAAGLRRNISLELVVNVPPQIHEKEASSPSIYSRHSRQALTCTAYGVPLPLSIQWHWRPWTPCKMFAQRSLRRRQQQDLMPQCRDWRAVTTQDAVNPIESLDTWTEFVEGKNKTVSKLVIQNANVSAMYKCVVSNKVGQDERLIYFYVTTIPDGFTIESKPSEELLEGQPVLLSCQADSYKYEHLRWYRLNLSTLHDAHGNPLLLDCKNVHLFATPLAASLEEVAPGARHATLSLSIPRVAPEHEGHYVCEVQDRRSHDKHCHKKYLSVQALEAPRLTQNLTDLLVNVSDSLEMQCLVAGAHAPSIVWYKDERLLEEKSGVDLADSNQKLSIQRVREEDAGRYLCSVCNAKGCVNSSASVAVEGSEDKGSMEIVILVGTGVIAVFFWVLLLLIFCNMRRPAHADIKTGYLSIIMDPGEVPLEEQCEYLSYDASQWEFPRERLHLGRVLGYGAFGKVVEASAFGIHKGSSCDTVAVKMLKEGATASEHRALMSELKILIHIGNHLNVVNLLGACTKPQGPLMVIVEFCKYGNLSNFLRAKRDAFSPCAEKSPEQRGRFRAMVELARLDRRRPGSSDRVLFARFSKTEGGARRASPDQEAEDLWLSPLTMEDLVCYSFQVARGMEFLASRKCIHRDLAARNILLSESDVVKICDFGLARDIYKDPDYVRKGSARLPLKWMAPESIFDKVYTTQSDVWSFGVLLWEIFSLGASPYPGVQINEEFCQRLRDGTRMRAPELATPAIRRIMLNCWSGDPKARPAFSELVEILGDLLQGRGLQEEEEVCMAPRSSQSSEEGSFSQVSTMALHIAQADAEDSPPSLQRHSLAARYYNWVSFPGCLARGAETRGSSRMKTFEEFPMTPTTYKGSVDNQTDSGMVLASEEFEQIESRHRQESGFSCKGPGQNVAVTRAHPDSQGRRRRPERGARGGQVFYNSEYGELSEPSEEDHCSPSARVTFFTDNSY

Assays:
Flag-tagged SGLT1 = target: T1, Flag-tagged SGLT1 (UniProt P13866); assay: co-IP
T1 sequence: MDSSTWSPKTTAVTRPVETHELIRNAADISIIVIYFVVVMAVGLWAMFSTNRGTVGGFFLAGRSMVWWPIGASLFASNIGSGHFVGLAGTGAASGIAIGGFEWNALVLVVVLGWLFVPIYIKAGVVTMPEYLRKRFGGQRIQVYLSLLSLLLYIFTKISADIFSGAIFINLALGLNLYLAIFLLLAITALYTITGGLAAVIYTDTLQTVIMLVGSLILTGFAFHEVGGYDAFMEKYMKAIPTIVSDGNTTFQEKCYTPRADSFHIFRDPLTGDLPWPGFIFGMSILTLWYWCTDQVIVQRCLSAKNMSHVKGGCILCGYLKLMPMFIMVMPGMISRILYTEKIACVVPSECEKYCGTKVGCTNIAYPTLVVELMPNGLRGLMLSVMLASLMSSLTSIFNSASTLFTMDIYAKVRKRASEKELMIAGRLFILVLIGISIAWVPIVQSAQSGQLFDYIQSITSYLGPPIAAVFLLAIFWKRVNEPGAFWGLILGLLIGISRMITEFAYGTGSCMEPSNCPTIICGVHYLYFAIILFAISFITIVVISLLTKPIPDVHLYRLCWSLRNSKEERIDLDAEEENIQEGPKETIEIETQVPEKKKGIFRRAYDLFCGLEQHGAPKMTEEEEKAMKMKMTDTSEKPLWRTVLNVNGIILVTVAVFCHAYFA

[1] = target: T2, SGLT1 (endogenous, JHH-7 cells) (human (endogenous in JHH-7)) (UniProt P13866); assay: co-IP
T2 sequence: T1 sequence

binding (Flag-tagged SGLT1) | binding [1] | Substance
binds |  | HA-tagged VEGFR3 (from UniProt P35916 25-1363) (receptor)
 | binds | VEGFR3 (endogenous, JHH-7 cells) (from UniProt P35916 25-1363) (receptor)
